Counter-ions that a name gives are not always drawn. ± gives the standard deviation of the averaged measurements. The list shows a part of the results. Baselines shift from plate to plate; read single values as rough.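 The cells are a mouse kidney inner medullary collecting duct line, silenced either for the ciliary gene Rpgrip1l or with a non-targeting control siRNA.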
Experiments:
[1] = tested on: mIMCD3; test: robust z score of cell number vs plate controls; higher = more cells (less cytotoxic); conditions: 10 µM, 48 h
[2] = tested on: mIMCD3; test: robust z score of cilia incidence (% cells with single cilium) vs plate controls; higher = more ciliated cells; conditions: 10 µM; 48 h; siRNA: siScr
[3] = tested on: mIMCD3; test: robust z score of cilia incidence (% cells with single cilium) vs plate controls; higher = more ciliated cells (rescue of cilia loss); conditions: 10 µM; 48 h; siRNA: siRpgrip1l

Structure (SMILES) | robust z score of cell number ([1]; siRNA: siRpgrip1l) | robust z score of cell number ([1]; siRNA: siScr) | robust z score of cilia incidence [2] | robust z score of cilia incidence [3]
CNS(=O)(=O)Cc1ccc2[nH]cc(CCN(C)C)c2c1 [Sumatriptan succinate] | -4.36 ± 2.9 | -0.573 ± 3.4 | -0.313 ± 1.1 | -4.62 ± 0.18
O=C(O)c1ccc(-c2c[nH]c3ncc(-c4ccccc4)cc23)cc1C1CCCC1 | -31.7 ± 31 | -14.1 ± 13 | -20 ± 9.2 | -25.2 ± 17
Clc1ccccc1CNCC1CCC(CNCc2ccccc2Cl)CC1 (stereo not drawn) | -194 ± 220 | -44.9 ± 11 | -47.6 ± 13 | -508 ± 330
CC(CCCCC(=O)Nc1ccc(C(F)(F)F)cc1)NCCc1cnc[nH]1 (stereo not drawn) [HTMT dimaleate] | -10.6 ± 15 | -7.22 ± 6.1 | -1.94 ± 1.5 | -14.5 ± 7.7
CC[N+](CC)(CC)CC(=O)Nc1c(C)cccc1C [QX 314 bromide] | -3.68 ± 0.77 | -2.63 ± 1 | -3.58 ± 2.5 | -7.59 ± 3.9
O=C(O)C1=CCCNC1 [Guvacine hydrochloride] | 12.5 ± 17 | -0.649 ± 13 | 0.893 ± 0.32 | -6.25 ± 2.9
CCCCCCCCCCCC1=C(O)C(=O)C=C(O)C1=O [Embelin] | -2.67 ± 3.1 | -0.676 ± 2 | 1.5 ± 2.9 | -8.31 ± 6.2
Cc1c(C(=O)N(C)C2CCCCC2)sc2nc3ccc(N)cc3n12 | -12.7 ± 4 | -16.2 ± 4.8 | -19 ± 16 | -20.4 ± 16
COc1ccc([C@H]2CNC(=O)C2)cc1OC1CCCC1 [(S)-(+)-Rolipram] | -36.7 ± 36 | 1.23 ± 1.6 | 1.26 ± 0.37 | -10.5 ± 4.2
CC12CC3CC(C)(C1)CC(N)(C3)C2 [Memantine hydrochloride] | 3.34 ± 4 | 3.57 ± 2.8 | -2.65 ± 0.19 | -7.38 ± 4.1
CCOc1cc(C(=O)Nc2ccc(Cl)c(-c3nc4ccccc4[nH]3)c2)cc(OCC)c1OCC | -19 ± 18 | -9.08 ± 7.3 | -4.4 ± 1.2 | -11.6 ± 3.3
COC1(C2=NCCN2)COc2ccccc2O1 (stereo not drawn) | -41.8 ± 15 | -1.83 ± 0.47 | -4.15 ± 7 | -9.78 ± 1
CC1(C)CC(=O)C(C2C3=C(CC(C)(C)CC3=O)Oc3ccccc32)C(=O)C1 (stereo not drawn) | -28.8 ± 44 | -0.747 ± 0.11 | -0.00441 ± 2.5 | -7.12 ± 0.75
Cc1cc(/C(=C/Nc2ccc(Cl)cc2)C(=O)Nc2ccc(Cl)cc2)on1 | -27 ± 21 | -26.3 ± 6.1 | -18.3 ± 8.8 | -19.6 ± 6.5
Fc1ccc(-c2nc3n(c2-c2ccncc2)CCS3)cc1 | -12.8 ± 6 | -18.4 ± 15 | -1.25 ± 2.4 | -16.2 ± 13
C=C1C(=O)O[C@@H]2/C=C(\C)CC/C=C(\C)CC[C@@H]12 [Costunolide] | -7.81 ± 1.8 | -49.1 ± 51 | -5.68 ± 4.9 | -16.1 ± 1.6

Structure (SMILES) | robust z score of cell number ([1]; siRNA: siRpgrip1l) | robust z score of cell number ([1]; siRNA: siScr) | robust z score of cilia incidence [2] | robust z score of cilia incidence [3]
CNc1cc(OC)c(C(=O)NC2CCN(Cc3ccccc3)C2C)cc1Cl (stereo not drawn) [Nemonapride] | -35.4 ± 31 | -35.2 ± 21 | -113 ± 70 | -119 ± 110
Cc1cccc(C#Cc2ccccc2)n1 [MPEP hydrochloride] | -3 ± 0.11 | -2.72 ± 1.6 | -0.283 ± 0.039 | -16.9 ± 7.1
COc1cc(/C=C(\C#N)C(N)=O)cc(CSc2nc3ccccc3s2)c1O | -36.1 ± 34 | 0.768 ± 4.7 | -0.534 ± 1.4 | -13.2 ± 9.9
O=C1CN(/N=C/c2ccc(-c3ccc([N+](=O)[O-])cc3)o2)C(=O)N1 [Dantrolene, sodium salt] | -15.7 ± 15 | -7.78 ± 1.8 | 1.89 ± 1 | -10.5 ± 0.92
O=c1[nH]nc(Sc2ncc([N+](=O)[O-])s2)n1-c1ccc2c(c1)OCCO2 | -31.3 ± 30 | -14.1 ± 14 | -16.4 ± 11 | -19.9 ± 4.1
O=C(O)C=C1CCCc2ccccc2C1O (stereo not drawn) | -2.04 ± 1.6 | 0.124 ± 4.6 | -0.226 ± 2.4 | -5.58 ± 4.3
Cc1ccc2c(c1)c1c3n2CCNC3CCC1 (stereo not drawn) [Pirlindole mesylate] | -14.9 ± 6.8 | -8.34 ± 0.4 | -10.7 ± 3 | -17.9 ± 1.1
CCC(C)N(C)C(=O)c1cc2ccccc2c(-c2ccccc2Cl)n1 (stereo not drawn) | -8.78 ± 7 | -9.08 ± 8.4 | 1.22 ± 1.4 | -14.32 ± 0.062
Nc1ncnc2n[nH]c(Nc3ccc(F)cc3)c12 | -12.5 ± 11 | -3.39 ± 1 | 0.327 ± 2.3 | -5.29 ± 0.23
NC(=O)CNCCC(c1ccccc1)c1ccccc1 [N20C hydrochloride] | 1.21 ± 1.6 | -5.71 ± 6.5 | -0.541 ± 1.1 | -7.31 ± 2.9
Cc1nc2sccn2c(=O)c1CCN1CCC(=C(c2ccc(F)cc2)c2ccc(F)cc2)CC1 [Ritanserin] | -45.1 ± 41 | -44.8 ± 29 | -124 ± 75 | -95.6 ± 85
COc1ccc(NC(=O)c2ccc(-c3ccc(-c4noc(C)n4)cc3C)cc2)cc1N1CCN(C)CC1 | -192 ± 220 | -44.8 ± 11 | -47.6 ± 13 | -555 ± 330
CC1=Nc2ccc(Cl)cc2S(=O)(=O)N1 [Diazoxide] | -4.54 ± 1.8 | -1.85 ± 0.38 | -3.41 ± 2 | -9.17 ± 3.5
CCOC(=O)c1ncc2[nH]c3cccc(OC(C)C)c3c2c1C | -41.3 ± 27 | -54.4 ± 29 | -34.1 ± 15 | -51.4 ± 25
CS(=O)(=O)c1ccc(-c2cc(Br)sc2-c2ccc(F)cc2)cc1 | -180 ± 200 | -37.6 ± 8.8 | -17.6 ± 5.5 | -347 ± 230
CCOC(=O)C1=C[C@]2(CC)CCCN3CCc4c(n1c1ccccc41)[C@@H]32 [Vinpocetine] | -7 ± 2.2 | 0.499 ± 0.84 | -9.74 ± 1.6 | -20.4 ± 1.6

Part of the list above in another layout:
Structure (SMILES)	robust z score of cell number ([1]; siRNA: siRpgrip1l)	robust z score of cell number ([1]; siRNA: siScr)	robust z score of cilia incidence [2]	robust z score of cilia incidence [3]
COc1ccc(NC(=O)c2ccc(-c3ccc(-c4noc(C)n4)cc3C)cc2)cc1N1CCN(C)CC1	-192 ± 220	-44.8 ± 11	-47.6 ± 13	-555 ± 330
CC1=Nc2ccc(Cl)cc2S(=O)(=O)N1 [Diazoxide]	-4.54 ± 1.8	-1.85 ± 0.38	-3.41 ± 2	-9.17 ± 3.5

— the supplement of paper PMC12009310
